# The other results are listed elsewhere or left out.
# What was measured:
# Assay in all cases: glycan array binding signal (z-score within array); higher = stronger binding
# Details in all cases: glycan notation: IUPAC condensed, linker removed
# [1] = target: GlcNAc(a1-4)Gal(b1-3)GlcNAc
# Outline: (§1)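 The binding signal is a Z-score computed within each array and averaged over linkers. Arrays of the same protein sequence at different concentrations or buffers were also averaged together. Data originate from 3228 arrays in the Consortium for Functional Glycomics database, kept only where the protein sequence was available.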
# [2] = target: GlcNAc(a1-4)Gal(b1-4)GalNAc
# Outline: as §1
# [3] = target: GlcNAc(a1-4)Gal(b1-4)GlcNAc
# Outline: as §1
# [4] = target: GlcNAc(a1-4)Gal(b1-4)GlcNAc(b1-3)Gal(b1-4)Glc
# Outline: as §1
# [5] = target: GlcNAc(a1-4)Gal(b1-4)GlcNAc(b1-3)Gal(b1-4)GlcNAc
# Outline: as §1
# [6] = target: GlcNAc(a1-4)Gal(b1-4)GlcNAc(b1-3)Gal(b1-4)GlcNAc(b1-3)Gal(b1-4)GlcNAc
# Outline: as §1
# [7] = target: GlcNAc(a1-4)Gal(b1-4)GlcNAc(b1-3)Gal(b1-4)[Fuc(a1-3)]GlcNAc(b1-3)Gal(b1-4)[Fuc(a1-3)]GlcNAc
# Outline: as §1
# [8] = target: GlcNAc(a1-6)Gal(b1-4)GlcNAc
# Outline: as §1
# [9] = target: GlcNAc(b1-2)Gal(b1-3)GalNAc
# Outline: as §1
# [10] = target: GlcNAc(b1-2)Man(a1-3)[GlcNAc(b1-2)Man(a1-6)]Man(b1-4)GlcNAc(b1-4)GlcNAc
# Outline: as §1
# [11] = target: GlcNAc(b1-2)Man(a1-3)[GlcNAc(b1-2)Man(a1-6)]Man(b1-4)GlcNAc(b1-4)[Fuc(a1-6)]GlcNAc
# Outline: as §1
# [12] = target: GlcNAc(b1-2)Man(a1-3)[GlcNAc(b1-4)][GlcNAc(b1-2)Man(a1-6)]Man(b1-4)GlcNAc(b1-4)GlcNAc
# Outline: as §1
# [13] = target: GlcNAc(b1-2)Man(a1-3)[GlcNAc(b1-4)][GlcNAc(b1-2)Man(a1-6)]Man(b1-4)GlcNAc(b1-4)[Fuc(a1-6)]GlcNAc
# Outline: as §1
# [14] = target: GlcNAc(b1-2)[GlcNAc(b1-4)]Man(a1-3)[GlcNAc(b1-2)Man(a1-6)]Man(b1-4)GlcNAc(b1-4)GlcNAc
# Outline: as §1
# [15] = target: GlcNAc(b1-2)[GlcNAc(b1-4)]Man(a1-3)[GlcNAc(b1-4)][GlcNAc(b1-2)Man(a1-6)]Man(b1-4)GlcNAc(b1-4)GlcNAc
# Outline: as §1
# [16] = target: GlcNAc(b1-2)[GlcNAc(b1-4)]Man(a1-3)[GlcNAc(b1-4)][GlcNAc(b1-2)[GlcNAc(b1-6)]Man(a1-6)]Man(b1-4)GlcNAc(b1-4)GlcNAc
# Outline: as §1
# [17] = target: GlcNAc(b1-2)[GlcNAc(b1-4)]Man(a1-3)[GlcNAc(b1-4)][GlcNAc(b1-2)[GlcNAc(b1-6)]Man(a1-6)]Man(b1-4)GlcNAc(b1-4)[Fuc(a1-6)]GlcNAc
# Outline: as §1
# [18] = target: GlcNAc(b1-2)[GlcNAc(b1-6)]Man(a1-6)[GlcNAc(b1-2)Man(a1-3)]Man(b1-4)GlcNAc(b1-4)GlcNAc
# Outline: as §1
# [19] = target: GlcNAc(b1-2)[GlcNAc(b1-6)]Man(a1-6)[GlcNAc(b1-2)Man(a1-3)]Man(b1-4)GlcNAc(b1-4)[Fuc(a1-6)]GlcNAc
# Outline: as §1
# [20] = target: GlcNAc(b1-2)[GlcNAc(b1-6)]Man(a1-6)[GlcNAc(b1-4)][GlcNAc(b1-2)Man(a1-3)]Man(b1-4)GlcNAc(b1-4)GlcNAc
# Outline: as §1
# GlcNAc(b1-3)Fuc = target: GlcNAc(b1-3)Fuc
# Outline: as §1
# GlcNAc(b1-3)Gal = target: GlcNAc(b1-3)Gal
# Outline: as §1
# [21] = target: GlcNAc(b1-3)Gal(b1-3)GalNAc
# Outline: as §1
# GlcNAc(b1-3)Gal(b1-4)Glc = target: GlcNAc(b1-3)Gal(b1-4)Glc
# Outline: as §1
# [22] = target: GlcNAc(b1-3)Gal(b1-4)GlcNAc
# Outline: as §1
# [23] = target: GlcNAc(b1-3)Gal(b1-4)GlcNAc(b1-2)Man(a1-3)[GlcNAc(b1-3)Gal(b1-4)GlcNAc(b1-2)Man(a1-6)]Man(b1-4)GlcNAc(b1-4)GlcNAc
# Outline: as §1
# [24] = target: GlcNAc(b1-3)Gal(b1-4)GlcNAc(b1-2)Man(a1-3)[GlcNAc(b1-3)Gal(b1-4)GlcNAc(b1-2)Man(a1-6)]Man(b1-4)GlcNAc(b1-4)[Fuc(a1-6)]GlcNAc
# Outline: as §1
# [25] = target: GlcNAc(b1-3)Gal(b1-4)GlcNAc(b1-2)[GlcNAc(b1-3)Gal(b1-4)GlcNAc(b1-6)]Man(a1-6)[GlcNAc(b1-3)Gal(b1-4)GlcNAc(b1-2)Man(a1-3)]Man(b1-4)GlcNAc(b1-4)GlcNAc
# Outline: as §1
# [26] = target: GlcNAc(b1-3)Gal(b1-4)GlcNAc(b1-3)Gal(b1-4)GlcNAc
# Outline: as §1
# [27] = target: GlcNAc(b1-3)Gal(b1-4)GlcNAc(b1-3)Gal(b1-4)GlcNAc(b1-2)Man(a1-3)[GlcNAc(b1-3)Gal(b1-4)GlcNAc(b1-3)Gal(b1-4)GlcNAc(b1-2)Man(a1-6)]Man(b1-4)GlcNAc(b1-4)GlcNAc
# Outline: as §1
# [28] = target: GlcNAc(b1-3)Gal(b1-4)GlcNAc(b1-3)Gal(b1-4)GlcNAc(b1-2)Man(a1-3)[GlcNAc(b1-3)Gal(b1-4)GlcNAc(b1-3)Gal(b1-4)GlcNAc(b1-2)Man(a1-6)]Man(b1-4)GlcNAc(b1-4)[Fuc(a1-6)]GlcNAc
# Outline: as §1
# [29] = target: GlcNAc(b1-3)Gal(b1-4)GlcNAc(b1-3)Gal(b1-4)GlcNAc(b1-2)[GlcNAc(b1-3)Gal(b1-4)GlcNAc(b1-3)Gal(b1-4)GlcNAc(b1-6)]Man(a1-6)[GlcNAc(b1-3)Gal(b1-4)GlcNAc(b1-3)Gal(b1-4)GlcNAc(b1-2)Man(a1-3)]Man(b1-4)GlcNAc(b1-4)[Fuc(a1-6)]GlcNAc
# Outline: as §1
# [30] = target: GlcNAc(b1-3)Gal(b1-4)GlcNAc(b1-3)Gal(b1-4)GlcNAc(b1-3)Gal(b1-4)GlcNAc(b1-2)Man(a1-3)[GlcNAc(b1-3)Gal(b1-4)GlcNAc(b1-3)Gal(b1-4)GlcNAc(b1-3)Gal(b1-4)GlcNAc(b1-2)Man(a1-6)]Man(b1-4)GlcNAc(b1-4)GlcNAc
# Outline: as §1
# [31] = target: GlcNAc(b1-3)Gal(b1-4)GlcNAc(b1-3)Gal(b1-4)GlcNAc(b1-3)Gal(b1-4)GlcNAc(b1-2)Man(a1-3)[GlcNAc(b1-3)Gal(b1-4)GlcNAc(b1-3)Gal(b1-4)GlcNAc(b1-3)Gal(b1-4)GlcNAc(b1-2)Man(a1-6)]Man(b1-4)GlcNAc(b1-4)[Fuc(a1-6)]GlcNAc
# Outline: as §1
# [32] = target: GlcNAc(b1-3)Gal(b1-4)GlcNAc(b1-3)Gal(b1-4)GlcNAc(b1-3)Gal(b1-4)GlcNAc(b1-2)[GlcNAc(b1-3)Gal(b1-4)GlcNAc(b1-3)Gal(b1-4)GlcNAc(b1-3)Gal(b1-4)GlcNAc(b1-6)]Man(a1-6)[GlcNAc(b1-3)Gal(b1-4)GlcNAc(b1-3)Gal(b1-4)GlcNAc(b1-3)Gal(b1-4)GlcNAc(b1-2)Man(a1-3)]Man(b1-4)GlcNAc(b1-4)[Fuc(a1-6)]GlcNAc
# Outline: as §1
# [33] = target: GlcNAc(b1-3)Gal(b1-4)GlcNAc(b1-3)Gal(b1-4)GlcNAc(b1-3)Gal(b1-4)GlcNAc(b1-3)Gal(b1-4)GlcNAc(b1-2)Man(a1-3)[GlcNAc(b1-3)Gal(b1-4)GlcNAc(b1-3)Gal(b1-4)GlcNAc(b1-3)Gal(b1-4)GlcNAc(b1-3)Gal(b1-4)GlcNAc(b1-2)Man(a1-6)]Man(b1-4)GlcNAc(b1-4)GlcNAc
# Outline: as §1
# [34] = target: GlcNAc(b1-3)Gal(b1-4)GlcNAc(b1-3)Gal(b1-4)GlcNAc(b1-3)Gal(b1-4)GlcNAc(b1-3)Gal(b1-4)GlcNAc(b1-2)Man(a1-3)[GlcNAc(b1-3)Gal(b1-4)GlcNAc(b1-3)Gal(b1-4)GlcNAc(b1-3)Gal(b1-4)GlcNAc(b1-3)Gal(b1-4)GlcNAc(b1-2)Man(a1-6)]Man(b1-4)GlcNAc(b1-4)[Fuc(a1-6)]GlcNAc
# Outline: as §1
# [35] = target: GlcNAc(b1-3)Gal(b1-4)GlcNAc(b1-3)Gal(b1-4)GlcNAc(b1-3)Gal(b1-4)GlcNAc(b1-3)Gal(b1-4)GlcNAc(b1-2)[GlcNAc(b1-3)Gal(b1-4)GlcNAc(b1-3)Gal(b1-4)GlcNAc(b1-3)Gal(b1-4)GlcNAc(b1-3)Gal(b1-4)GlcNAc(b1-6)]Man(a1-6)[GlcNAc(b1-3)Gal(b1-4)GlcNAc(b1-3)Gal(b1-4)GlcNAc(b1-3)Gal(b1-4)GlcNAc(b1-3)Gal(b1-4)GlcNAc(b1-2)Man(a1-3)]Man(b1-4)GlcNAc(b1-4)[Fuc(a1-6)]GlcNAc
# Outline: as §1
binder,measurement,setting,value
PX14343E-bfa-545-24-545 (Bacteroides fragilis) (protein) LDRYPQEELSDGSFWKTPDDANKVVSDLYGYLSTWDQDNDINSDNATMGIKWAAGNVSKGIYDPADQGWSGDYANVRQCNLILSKIDEIPDYPEADKTKALGQVYFFRAYIYFNLIRSFGDVPYIDKPLDLKDMEGITRMPRAEVYEKIMADFDKAIAALPTEWGASDYGRVTKGAAMAMKARAALYYGNWDTAATEAKNVMDLGLYELYDKDNTGKYAELFWEKADGCDEFILVTQFNYPDKTHYLMGWECFPTKGWGGMNPTQSLVDAFEDSEGAPISKSKIYDPTDPFKNRDPRLEVDILHDGEEMYGVTIKVAPLASSGSTGINQHNDATETGYYGQKWLDPSLDPLSDGWNMGKDWVHIRYAEVLLTYAEAKNELQGLDPEAFDAVNQVRRRVGMPELQNTDPSKPTYCATQDDLRQRIRNEWRVEFCLEGGKRMWDIRRWGIAKDVLNAPFEGLKYKIVDNPNDPDKKVDGGKMCILYQGDPIILSGSRYSDNNYLFPVPQSEIDLNPALTQNPGY,glycan array binding signal (z-score),[1],-0.321
same,glycan array binding signal (z-score),[2],0.655
same,glycan array binding signal (z-score),[3],-0.84
same,glycan array binding signal (z-score),[4],-0.243
same,glycan array binding signal (z-score),[5],0.54
same,glycan array binding signal (z-score),[6],-0.242
same,glycan array binding signal (z-score),[7],8.96
same,glycan array binding signal (z-score),[8],-0.692
same,glycan array binding signal (z-score),[9],-0.499
same,glycan array binding signal (z-score),[10],-0.7
same,glycan array binding signal (z-score),[11],-0.895
same,glycan array binding signal (z-score),[12],-0.413
same,glycan array binding signal (z-score),[13],-0.597
same,glycan array binding signal (z-score),[14],0.572
same,glycan array binding signal (z-score),[15],-0.002
same,glycan array binding signal (z-score),[16],-0.181
same,glycan array binding signal (z-score),[17],-0.534
same,glycan array binding signal (z-score),[18],-0.172
same,glycan array binding signal (z-score),[19],-0.15
same,glycan array binding signal (z-score),[20],-0.402
same,glycan array binding signal (z-score),GlcNAc(b1-3)Fuc,-0.635
same,glycan array binding signal (z-score),GlcNAc(b1-3)Gal,0.401
same,glycan array binding signal (z-score),[21],0.128
same,glycan array binding signal (z-score),GlcNAc(b1-3)Gal(b1-4)Glc,-0.803
same,glycan array binding signal (z-score),[22],-0.576
same,glycan array binding signal (z-score),[23],0.164
same,glycan array binding signal (z-score),[24],0.612
same,glycan array binding signal (z-score),[25],0.412
same,glycan array binding signal (z-score),[26],0.612
same,glycan array binding signal (z-score),[27],0.918
same,glycan array binding signal (z-score),[28],0.777
same,glycan array binding signal (z-score),[29],-0.324
same,glycan array binding signal (z-score),[30],1.67
same,glycan array binding signal (z-score),[31],-0.045
same,glycan array binding signal (z-score),[32],0.067
same,glycan array binding signal (z-score),[33],-0.224
same,glycan array binding signal (z-score),[34],0.16
same,glycan array binding signal (z-score),[35],0.637

# An excerpt of these results, tab-delimited:
binder	measurement	setting	value
PX14343E-bfa-545-24-545 (Bacteroides fragilis) (protein) LDRYPQEELSDGSFWKTPDDANKVVSDLYGYLSTWDQDNDINSDNATMGIKWAAGNVSKGIYDPADQGWSGDYANVRQCNLILSKIDEIPDYPEADKTKALGQVYFFRAYIYFNLIRSFGDVPYIDKPLDLKDMEGITRMPRAEVYEKIMADFDKAIAALPTEWGASDYGRVTKGAAMAMKARAALYYGNWDTAATEAKNVMDLGLYELYDKDNTGKYAELFWEKADGCDEFILVTQFNYPDKTHYLMGWECFPTKGWGGMNPTQSLVDAFEDSEGAPISKSKIYDPTDPFKNRDPRLEVDILHDGEEMYGVTIKVAPLASSGSTGINQHNDATETGYYGQKWLDPSLDPLSDGWNMGKDWVHIRYAEVLLTYAEAKNELQGLDPEAFDAVNQVRRRVGMPELQNTDPSKPTYCATQDDLRQRIRNEWRVEFCLEGGKRMWDIRRWGIAKDVLNAPFEGLKYKIVDNPNDPDKKVDGGKMCILYQGDPIILSGSRYSDNNYLFPVPQSEIDLNPALTQNPGY	glycan array binding signal (z-score)	[31]	-0.045
same	glycan array binding signal (z-score)	[32]	0.067
same	glycan array binding signal (z-score)	[33]	-0.224

# Source: the supplement of paper PMC8728848
